PubChem BioAssay AID1259424 – University of Nebraska Medical Center, 2018
The deposit covers about 14,000 reagents; below is a part drawn at random. 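Higher correlation or smaller distance means closer resemblance to KSR1 loss; control wells, including KSR1 knockdowns, recur on many plates.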 Further read-outs or replicates are left out here. The record does not give: the time to read-out.

Purpose: 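Seek colon cancer survival genes behaving like KSR1, using a six-gene signature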 (primary screen)
Cells: human HCT116 colon cancer cells
Reagent: siRNA pool against human genes, 50 nM
Detection: 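Six signature mRNAs by branched-DNA multiplex assay, scaled to two housekeeping genes and non-targeting median, log2; matched to mean KSR1 knockdown profile by Pearson correlation and euclidean distance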
Scale: mean correlation with KSR1 profile: higher = expression change more like KSR1 knockdown

How did the screen score PLXNA3 (plexin A3)?
mean correlation with KSR1 profile: -0.913

How did the screen score IDH3G?
mean correlation with KSR1 profile: 0.0206

With GRAPL-AS1 (GRAPL antisense RNA 1), what was measured?
mean correlation with KSR1 profile: 0.156

How did the screen score NPHS1 (NPHS1 adhesion molecule, nephrin)?
mean correlation with KSR1 profile: 0.737

With UAP1 (UDP-N-acetylglucosamine pyrophosphorylase 1), what was measured?
mean correlation with KSR1 profile: 0.0966

With FRS2 (fibroblast growth factor receptor substrate 2), how do the results read?
mean correlation with KSR1 profile: 0.0546

How did the screen score SLC40A1?
mean correlation with KSR1 profile: -0.161

Already shown: entries from further up.
IDH3G: mean correlation with KSR1 profile = 0.0206
GRAPL-AS1 (GRAPL antisense RNA 1): mean correlation with KSR1 profile = 0.156
NPHS1 (NPHS1 adhesion molecule, nephrin): mean correlation with KSR1 profile = 0.737

Additional reagents follow.
What did the screen give for CYP4F2 (cytochrome P450 family 4 subfamily F member 2)?
mean correlation with KSR1 profile: 0.316

With RRP8 (ribosomal RNA processing 8), what does the deposit list?
mean correlation with KSR1 profile: 0.699

For SPAG16 (sperm associated antigen 16), what was measured?
mean correlation with KSR1 profile: 0.00912

For DCAF7 (DDB1 and CUL4 associated factor 7), how do the results read?
mean correlation with KSR1 profile: 0.503

What is on record for ACP3 (acid phosphatase 3)?
mean correlation with KSR1 profile: 0.22

How did the screen score MTMR14 (myotubularin related protein 14)?
mean correlation with KSR1 profile: -0.182

What is on record for SLC39A6?
mean correlation with KSR1 profile: 0.0982

How did the screen score MTA2 (metastasis associated 1 family member 2)?
mean correlation with KSR1 profile: 0.258

With AEN (apoptosis enhancing nuclease), what was measured?
mean correlation with KSR1 profile: -0.632

What did the screen give for CHRNB4 (cholinergic receptor nicotinic beta 4 subunit)?
mean correlation with KSR1 profile: -0.266

What did the screen give for KIF3C (kinesin family member 3C)?
mean correlation with KSR1 profile: -0.105

With CENPA (centromere protein A), how do the results read?
mean correlation with KSR1 profile: -0.244
